Values quoted from earlier work, collected in US20140004043A1, “CRYPTOPHANE DERIVATIVES AND METHODS OF USE THEREOF” (Georgetown Univeristy, priority 2010, published 2014).

Details: TCE-d2, cited from earlier work

SMILES	δ, 129Xe chemical shift of caged xenon (Xe@host signal)	δ, 129Xe chemical shift of caged xenon (Xe@host signal) (listed as A)
c1cc2c3cc1OCOc1ccc4c(c1)Cc1ccc5cc1Cc1ccc(cc1C4)OCOc1ccc(c(c1)Cc1ccc(cc1C2)OCO5)C3 (racemic) [Cryptophane 1, (±)-cryptophane-1,1,1]	31 ppm	–
COc1cc2c3cc1OCCOc1cc4c(cc1OC)Cc1cc5c(OC)cc1Cc1cc(c(OC)cc1C4)OCCOc1cc(c(cc1OC)C3)Cc1cc(OC)c(cc1C2)OCCO5 [A (or 222), (±)-cryptophane-A]	63^c ppm	63 ppm

Like-named read-outs stand apart in the source and are kept apart here. Marks after values point to notes of the source that are not given here.
